Data reported in US20180057601A1 (PIERRE FABRE MEDICAMENT, published 2018).
These are yes or no findings as the source states them, for the method shown. Some binding calls cover weakened binding; strength is not graded here.

Biological target: T1, Peptide_013
T1 sequence (peptide): CKVCCRDLSGRCVPY
Assay: peptide microarray: immobilized 15-mer peptides, antibody at 100 µg/ml, Cy5 anti-human IgG; signal as ratio to control antibody ch9G4

B1: hz1022C3 (antibody, V domains shown)
VH: QVQLQESGPGLVKPSETLSLTCTVSGFSLDTSGMGVSWIRQPAGKGLEWIGHIYWDDDKRYNPSLKSRVTMSKDTSSNQVSLKLSSVTAADTAVYYCARRSHFGNYYYAMDYWGQGTTVTVSS
VL: DIQMTQSPSSLSASVGDRVTITCRASQDISSYLNWYQQKPGKAPKLLIFYTSRLQSGVPSRFSGSGSGTDFTLTISSLQPEDFATYYCQQGKTLPLTFGGGTKVEIK
notes: also called mAb hz1022C3; anti-ADAM17 mAb (hz1022C3)
  binding: binds
